Hit rate of the full screen: of about 400,000 compounds, about 13,000 (3.2%) were called active. The inconclusive results got no clear call from the source; some entries with a clear call stand among them for comparison. Calls come from the whole dose curve; as a rule, active = well fitted cell-killing curve with a large enough effect; inconclusive = small, poorly fitted or top-dose-only effect, or effect the other way; inactive = flat fitted curve, though single readings scatter. Where the call is inconclusive, the potency comes from a doubtful curve fit.
Assay: qHTS assay for MDR1-selective chemotherapeutics: Primary screen using the drug-selected MDR subline cells KB-V1; note: nearly all actives have a fitted effect of over 60% in size
Settings: KB-V1 MDR cells viability, CellTiter-Glo, 72 h; series mostly up to 46.1 µM
Outline: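 Drug-selected KB-V1 cells, grown in DMEM lacking phenol red with 10% FBS, receive compound titrations; after three days at 37 degrees C, surviving cell ATP is quantified by CellTiter-Glo luminescence and responses normalized and curve-fitted.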
Potency is the fitted concentration of half-maximal effect.

| Structure (SMILES) | Potency |
| --- | --- |
| CCOC(=O)C1CCN(S(=O)(=O)c2ccc(CN3C(=O)c4cccnc4C3=O)cc2)CC1 | inconclusive: 16.4 µM [rising, single point] |
| O=C(c1cc(-c2cccs2)on1)N1CCN(c2ccccc2)CC1 | inconclusive: 32.6 µM [cytotoxic, single point] |
| Cc1cc(C)cc(NS(=O)(=O)CCCS(=O)(=O)Nc2cc(C)cc(C)c2)c1 | inactive |
| O=C(O)CNS(=O)(=O)c1ccc2c(c1)C(=O)c1cc(S(=O)(=O)NCC(=O)O)ccc1-2 | inconclusive: 14.6 µM [rising, single point] |
| O=C1CCN(Cc2ccccc2)CCN1[C@H](COc1ccccc1)Cc1ccccc1 | inconclusive: 9.2 µM [cytotoxic, partial curve] |
| CCOc1ccc(CN2C(=O)c3ccccc3Sc3ccc(C(=O)NCCCN4CCOCC4)cc32)cc1 | inconclusive: 29.1 µM [cytotoxic, single point] |
| C/C(=N\NC(=O)c1ccc([N+](=O)[O-])c(C)c1)c1ccccc1Cl | inconclusive: 29.1 µM [cytotoxic, single point] |
| C[C@H]1CN([C@@H](C)CO)C(=O)CCCn2cc(nn2)CO[C@@H]1CN(C)S(=O)(=O)c1ccc(C#N)cc1 | inactive |
| Cc1ccc(NC(=O)CCN2C(=O)c3ccccc3C2=O)cc1C | inconclusive: 29.1 µM [rising, single point] |
| COc1cc(OC)cc(C(=O)NCC(=O)OCc2ccc(Cl)c(Cl)c2)c1 | inconclusive: 0.0366 µM [rising, full curve] |
| C=CCn1c(SCc2nnc(-c3ccccc3)o2)nnc1C(O)c1ccccc1 (stereo unspecified) | inconclusive: 29.1 µM [cytotoxic, single point] |
| O=C(CCC(=O)N/N=C/c1ccc(Br)o1)N/N=C/c1ccc(Br)o1 | inconclusive: 7.31 µM [rising, partial curve, poor fit] |
| COc1ccc(NC(C)=O)cc1S(=O)(=O)Nc1ccc2c(c1)OCCO2 | inactive |
| Nc1ncnc2c1ncn2[C@@H]1O[C@H](COP(=O)(O)O)[C@@H](O)[C@H]1O | inconclusive: 23.1 µM [rising, single point] |
| O=C(Nc1ccc(Cl)c(Cl)c1)N(Cc1c[nH]c2ccccc12)C1CCCCC1 | inactive |
| COc1ccc(N2C(=O)C3C(c4ccc(C(=O)O)cc4)NC(Cc4ccccc4)(C(=O)O)C3C2=O)c([N+](=O)[O-])c1 (stereo unspecified) | inactive |
| O=C(NCc1ccccc1)C1CCCN(S(=O)(=O)c2cccc3nonc23)C1 (stereo unspecified) | active: 18.4 µM |
| Cc1ccc(NC(=O)CCCCCNS(=O)(=O)c2ccc(C)cc2)cc1 | inconclusive: 16.4 µM [cytotoxic, partial curve] |
| O=S(=O)(NCC1CCN(c2ccc(S(=O)(=O)N3CCOCC3)cc2)CC1)c1ccc(F)cc1 | inconclusive: 11.6 µM [cytotoxic, partial curve, poor fit] |
| COc1ccccc1N1CCN(c2c(CN3CCCC3)c(=O)oc3ccccc23)CC1 | inactive |
| C=CCN(CC=C)C(=O)Nc1cc(Cl)ccc1OC | active: 14.6 µM |

Grouped by structure: the entries above containing a COOH group

| Structure (SMILES) | Potency |
| --- | --- |
| O=C(O)CNS(=O)(=O)c1ccc2c(c1)C(=O)c1cc(S(=O)(=O)NCC(=O)O)ccc1-2 | inconclusive: 14.6 µM [rising, single point] |
| COc1ccc(N2C(=O)C3C(c4ccc(C(=O)O)cc4)NC(Cc4ccccc4)(C(=O)O)C3C2=O)c([N+](=O)[O-])c1 (stereo unspecified) | inactive |

Next entries:

| Structure (SMILES) | Potency |
| --- | --- |
| CC(C)c1nc2oc3c(N4CCN(C)CC4)ncnc3c2c2c1CCC2 | inconclusive: 23.1 µM [cytotoxic, partial curve] |
| Cc1cc(C(=O)CCl)c(C)n1CCc1ccc(Cl)cc1 | inconclusive: 29.1 µM [cytotoxic, single point] |
| COc1ccc(CNc2nc(NCc3ccc(OC)cc3)n(C(=O)c3ccccc3[N+](=O)[O-])n2)cc1 | inconclusive: 20.6 µM [cytotoxic, single point] |
| CCN(CC)c1ccc(/C=N/NC(=O)c2cnccn2)c(O)c1 | inconclusive: 6.51 µM [cytotoxic, partial curve, poor fit] |
| CN(C)c1ncc(C(=O)NCc2ccccc2Cl)cn1 | inactive |
| CC(C)Cn1c([N+](=O)[O-])nc2c1c(=O)[nH]c(=O)n2C | inconclusive: 20.6 µM [cytotoxic, single point] |
| C#CCNC(=O)C[C@@H]1C[C@@]2(C(=O)OCC)CCCC=C2N(Cc2ccco2)C1=O | inactive |
| CCN(Cc1ccccc1)S(=O)(=O)c1ccc(C(=O)N(CCCN(C)C)c2nc3cc4c(cc3s2)OCO4)cc1 | inconclusive: 0.58 µM [cytotoxic, full curve, poor fit] |
| CN(C)c1ccc(/C=C/c2sc3ccccc3[n+]2CCCCI)cc1 | active: 23.1 µM |
| COc1cc(Cl)c(NC(=O)CC(C)S(=O)(=O)c2cc3c(cc2C)NC(=O)CO3)c(OC)c1 (stereo unspecified) | inconclusive: 29.1 µM [rising, single point] |
| Cc1cc(NC(=O)CSc2nc3c(c(=O)n2-c2ccc(Br)cc2)SCC3)no1 | inconclusive: 5.8 µM [cytotoxic, partial curve] |
| Cc1sc2ncn(CC(=O)NCC(=O)N3CCN(c4ccc(F)cc4)CC3)c(=O)c2c1C | inconclusive: 11.6 µM [cytotoxic, partial curve] |
| CC(C)NC(=O)Cn1cc(S(=O)(=O)N2CCCC2)c(S(=O)(=O)N2CCCC2)c1 | inconclusive: 20.6 µM [rising, single point] |
| N#Cc1c(N2CCN(c3ccc([N+](=O)[O-])cc3)CC2)[n+](=O)c2ccc(Cl)cc2n1[O-] | inconclusive: 23.1 µM [cytotoxic, single point] |
| Cc1cccc(C)c1NC(=O)CN(C)C(=O)c1cccc(-n2cccc2)c1 | inactive |
| CCN(CC)C(=S)Nc1ccc(Cl)c(Cl)c1 | active: 23.1 µM |
| CC1CCCCC1NC(=O)c1ccc(S(=O)(=O)NCC2CCCO2)cc1 (stereo unspecified) | inconclusive: 18.4 µM [cytotoxic, single point] |
| CC1(C)CC(=O)C2=C(C1)N=C1SCCC(=O)N1C2c1cccc([N+](=O)[O-])c1 (stereo unspecified) | inactive |
| CC(C)CCn1c(Oc2ccc(Cl)cc2)nc2c1c(=O)n(C)c(=O)n2C | inconclusive: 20.6 µM [cytotoxic, partial curve, poor fit] |
| CC(=O)Nc1ccc(NC(=O)CSc2nnc(NC(=O)c3ccc(Br)o3)s2)cc1 | inconclusive: 32.6 µM [cytotoxic, single point] |

Reference: PubChem BioAssay AID1347076 (National Center for Advancing Translational Sciences (NCATS), 2019)
